Here are results for one molecule from paper doi:10.1101/2024.10.29.620780.

The target in this test is T1, StrepII-AtPAD4 (Arabidopsis) (UniProt Q9S745).
T1 sequence: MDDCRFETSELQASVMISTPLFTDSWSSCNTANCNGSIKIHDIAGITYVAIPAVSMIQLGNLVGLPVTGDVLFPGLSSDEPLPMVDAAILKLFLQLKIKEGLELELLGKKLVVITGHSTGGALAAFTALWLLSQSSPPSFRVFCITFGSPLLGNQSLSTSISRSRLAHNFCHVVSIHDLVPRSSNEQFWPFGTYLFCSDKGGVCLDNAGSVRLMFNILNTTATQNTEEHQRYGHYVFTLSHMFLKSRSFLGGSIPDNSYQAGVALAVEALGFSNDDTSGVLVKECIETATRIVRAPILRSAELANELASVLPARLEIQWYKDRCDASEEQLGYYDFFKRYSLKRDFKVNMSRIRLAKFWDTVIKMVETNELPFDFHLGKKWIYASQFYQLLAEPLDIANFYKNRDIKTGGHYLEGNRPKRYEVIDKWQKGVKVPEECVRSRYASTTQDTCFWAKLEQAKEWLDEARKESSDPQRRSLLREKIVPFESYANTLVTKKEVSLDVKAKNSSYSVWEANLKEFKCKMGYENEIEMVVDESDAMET
Kind of test: cryo-EM structure.

These are yes or no findings as the source states them, for the method shown. Some binding calls cover weakened binding; strength is not graded here.

B1: StrepII-AtEDS1 (protein, UniProt Q9SU72 1-623)
chain: MAFEALTGINGDLITRSWSASKQAYLTERYHKEEAGAVVIFAFQPSFSEKDFFDPDNKSSFGEIKLNRVQFPCMRKIGKGDVATVNEAFLKNLEAIIDPRTSFQASVEMAVRSRKQIVFTGHSSGGATAILATVWYLEKYFIRNPNVYLEPRCVTFGAPLVGDSIFSHALGREKWSRFFVNFVSRFDIVPRIMLARKASVEETLPHVLAQLDPRKSSVQESEQRITEFYTRVMRDTSTVANQAVCELTGSAEAFLETLSSFLELSPYRPAGTFVFSTEKRLVAVNNSDAILQMLFYTSQASDEQEWSLIPFRSIRDHHSYEELVQSMGKKLFNHLDGENSIESTLNDLGVSTRGRQYVQAALEEEKKRVENQKKIIQVIEQERFLKKLAWIEDEYKPKCQAHKNGYYDSFKVSNEENDFKANVKRAELAGVFDEVLGLMKKCQLPDEFEGDIDWIKLATRYRRLVEPLDIANYHRHLKNEDTGPYMKRGRPTRYIYAQRGYEHYILKPNGMIAEDVFWNKVNGLNLGLQLEEIQETLKNSGSECGSCFWAEVEELKGKPYEEVEVRVKTLEGMLGEWITDGEVDDKEIFLEGSTFRKWWITLPKNHKSHSPLRDYMMDEITDT
With B1, the binding entry is “binds”.
